Measured values published in PubChem BioAssay AID588497 (NMMLSC, 2011).
Screen size: about 360,000 compounds; about 780 (0.22%) were called active. The shares of active, inactive and inconclusive entries below differ from those in the screen. Rule as the data show it: active = inhibition above about 35% (passing the limit was not always enough); inconclusive = no clear call, values can overlap the other calls.

Tested on: Botulinum neurotoxin type F light chain protease (Clostridium botulinum)
Test: BoNT/F light chain protease inhibitors, primary screen, biochemical, flow cytometry, MLPCN library (AID 588497); also: plate controls were buffer without enzyme for full effect and enzyme alone for no effect
Settings: Multiplex microsphere protease cleavage assay, at 10 µM, hits give high values

| Compound | inhibition |
| --- | --- |
| COc1cc(/C=N/Nc2ccc(Cl)nn2)cc(OC)c1O | inconclusive: -10% |
| Cc1oc(-c2ccccc2F)nc1CSCC(=O)NCc1ccc2c(c1)OCO2 | inactive: 3.9% |
| C=CCNC(=O)c1ccccc1NC(=O)C1CC(=O)N(C(C)C)C1 (centres undefined) | inconclusive: -11.5% |
| CCN(CC)CCOC(=O)c1ccc(N/C=C(/C#N)c2nc(-c3cccc(OC)c3)cs2)cc1 | inconclusive: -52.3% |
| COC(=O)c1sc2nc(N)c(C#N)cc2c1N | inactive: -0.2% |
| CCn1c(CNC(=O)c2ccccc2F)cc2ccccc21 | inconclusive: 5.5% |
| Cc1nn(C(C)C(=O)N/N=C/c2ccc(N(C)C)cc2)c(C)c1[N+](=O)[O-] (centres undefined) | inconclusive: 51.1% |
| CN1CCN(C(=O)Cc2ccccc2)CC1 | inconclusive: 20.8% |
| O=C(CCSc1ccccn1)Nc1ccc(Br)cc1 | active: 47.2% |
| Cc1oc2c(c(C)cc3oc(=O)c(CC(=O)NCC(=O)NCC(=O)NCC(C)O)c(C)c32)c1C (centres undefined) | inactive: -27.6% |
| COC(=O)[C@H](CCSC)NC(=O)NCc1cccs1 | inactive: -13.6% |
| CCOc1cccc(CN2CCCC(N3CCN(c4cccc(Cl)c4)CC3)C2)c1O (centres undefined) | inconclusive: -34.3% |
| NNC(=O)c1[nH]c2ccc(Br)cc2c1-c1ccccc1 | inconclusive: -35.8% |
| Cc1ccc(CCC(=O)Nc2ccc([N+](=O)[O-])cc2Cl)o1 | inconclusive: 21% |
| COc1ccc(S(=O)(=O)Nc2ccc(Cl)cn2)cc1 | inconclusive: 21.6% |
| Cc1cccc(NC(=O)C2CC2c2ccccc2)c1C (centres undefined) | inconclusive: -32.8% |
| O=C(N/C(=C/c1ccccc1F)C(=O)N1CCCCC1)c1ccccc1 | inactive: -1.4% |
| O=C1N(Cc2cccnc2)C[C@@H]2C[C@@H](c3cccc(OC4CCCC4)c3)N3CCC[C@@]123 | inactive: 3.6% |
| Cc1cccc(-c2noc(-c3ccccc3C(=O)NCc3ccco3)n2)c1 | inconclusive: -60.7% |
| CCNC(=O)NC(=O)COC(=O)c1cccc(S(=O)(=O)N2CC3(C)CC2CC(C)(C)C3)c1 (centres undefined) | inconclusive: 13.6% |

An excerpt of these results, with bars between the fields.
Compound | inhibition
Cc1cccc(-c2noc(-c3ccccc3C(=O)NCc3ccco3)n2)c1 | inconclusive: -60.7%
CCNC(=O)NC(=O)COC(=O)c1cccc(S(=O)(=O)N2CC3(C)CC2CC(C)(C)C3)c1 (centres undefined) | inconclusive: 13.6%

Next compounds:

| Compound | inhibition |
| --- | --- |
| O=C(Nc1cc(Cl)cc(Cl)c1)C1CCCC1 | inconclusive: 11.4% |
| O=C(Nc1ccc([N+](=O)[O-])cc1)C1COc2ccccc2O1 (centres undefined) | inconclusive: 1.8% |
| O=C(Cn1c(CO)nc2ccccc21)NC1CCCCCC1 | inactive: -0.1% |
| CCOc1ccc(C(=S)N2CCCC2)cc1OCC | inconclusive: 6.7% |
| C=CCCC(=O)Nc1nc(C)c(-c2csc(Nc3cc(OC)ccc3OC)n2)s1 | inactive: -1% |
| Nc1nonc1-n1nnc(C(=O)N/N=C/c2cc(Cl)ccc2O)c1CN1CCCCCC1 | inactive: -10.6% |
| C=CCC[C@@H](Cc1ccc(F)cc1)C(=O)OC[C@H](C)NC(=O)[C@@H](CC=C)CC(=O)N(CCO)Cc1ccccc1 | inactive: 1.5% |
| CC(C)OP(=O)(OC(C)C)C(O)c1ccc(Br)cc1 (centres undefined) | inactive: -12.9% |
| Nc1ccccc1C(=O)NNc1c2ccccc2nc2ccccc12 | inconclusive: -121% |
| O=C(Oc1ccc2c(c1)OCO2)c1cc2c(s1)CCC2 | active: 53.7% |
| Cc1cc(C)n2nc(SCC(=O)Nc3ccc(F)c(F)c3F)nc2n1 | inactive: 0.7% |
| COc1cc(/C=C2\N=C(c3ccccc3)OC2=O)ccc1OC(C)=O | inconclusive: -44.1% |
| Cc1cc(-c2nc(C)c(-c3nnc(SCC(=O)Nc4cc(Cl)cc(Cl)c4)n3C)s2)no1 | inconclusive: 16.5% |
| O=C(/C=C/c1ccc(Br)cc1)NCCCn1ccnc1 | inconclusive: 6.2% |
| COc1ccc(/C=N/Nc2nnc(C)n2N)cc1OC(C)=O | inconclusive: -28.5% |
| Cc1nn(-c2ccccc2)c2sc(C(=O)N3CCCCC3)cc12 | active: 38.5% |
| CCOc1ccccc1NC(=O)N1CCC(c2nc3ccc(C)cc3[nH]2)CC1 | inactive: -9.7% |
| COc1ccc(OCC(=O)N2CCN(c3nnc(-c4ccc(C)cc4)c4ccccc34)CC2)cc1 | inconclusive: -51.8% |
| N#Cc1nc(-c2ccc(F)cc2)oc1NCc1ccco1 | inconclusive: 72.6% |
| Cc1cccc(Nc2c([N+](=O)[O-])c(=O)oc3ccccc23)c1 | inconclusive: -23% |

| Compound | inhibition |
| --- | --- |
| CSc1ccc(/C=N/n2nnnc2N)cc1 | inactive: 1% |
| Cc1cc(C)c(S(=O)(=O)N2CCN(C(=O)N3CCOCC3)CC2)c(C)c1 | inconclusive: -3.5% |
| C=CCn1c(O)c(C(CC)=Nc2cccc(C(F)(F)F)c2)c(=O)[nH]c1=O | inconclusive: 88.5% |
| CCn1c(SCC(=O)c2ccc3ccccc3c2)nnc1-c1cccs1 | inconclusive: 73.7% |
| Cc1ccc2c(c1)c1ncn(Cc3ccc(F)cc3)c(=O)c1n2C | inconclusive: -54.2% |
| Cc1ccc(S(=O)(=O)NNC(=O)c2ccccc2O)cc1 | active: 39.1% |
| CCOC(=O)CSc1nnc(CSc2nc(C)cc(C)n2)n1Cc1ccco1 | inactive: 2.5% |
| Cc1ccc(C(=O)Nc2ccc(N3CCN(S(C)(=O)=O)CC3)cc2)cc1C | inconclusive: -78.9% |
| Cn1c(NCCO)nc2c1c(=O)n(Cc1cccc(Cl)c1)c(=O)n2C | inconclusive: -21.3% |
| COC(=O)C1=CN(Cc2ccc(F)cc2)C=C(C(=O)OC)C1c1cc(OC)c(OC)c(OC)c1 | inactive: -17.7% |
| COc1ccc(CCNC(=O)c2cc3cc(Cl)ccc3nc2N)cc1OC | inactive: -6.1% |
| COc1ccc(CN(CCC(c2ccco2)C(C)C)C(C)=O)cc1OC (centres undefined) | inconclusive: -90.2% |
| Cc1ccc2nc(-c3ccc(NC(=O)COCC(=O)O)cc3)sc2c1 | inconclusive: -25.3% |
| Cc1cc(=O)n(C)c2ccc(S(=O)(=O)N3CCOCC3)cc12 | inconclusive: -31.7% |
| COc1ccc(Cn2ccnc2)cc1Br | inactive: -4.6% |
| O=C(NCc1ccccc1F)C1CCCN1C(=O)Nc1ccccc1 (centres undefined) | inconclusive: 12.3% |
| COCCCn1c(=O)c2ccccc2c2ccccc2c1=O | inconclusive: -15% |
| Cc1cc(C)c(C)c(OCCN2CC(C)OC(C)C2)c1 (centres undefined) | inconclusive: 13.2% |
| O=C(NC1CC1)C1CCN(C2CCN(C(=O)CC3=CCCCC3)CC2)CC1 | inactive: 1.2% |
